{
  "sequences": {"note": "Amino acid sequences for entries named in this document (tags omitted). A change or cut given only in a name is not applied to a line headed by its entry.", "UniProt Q16539, whole entry, looked up": "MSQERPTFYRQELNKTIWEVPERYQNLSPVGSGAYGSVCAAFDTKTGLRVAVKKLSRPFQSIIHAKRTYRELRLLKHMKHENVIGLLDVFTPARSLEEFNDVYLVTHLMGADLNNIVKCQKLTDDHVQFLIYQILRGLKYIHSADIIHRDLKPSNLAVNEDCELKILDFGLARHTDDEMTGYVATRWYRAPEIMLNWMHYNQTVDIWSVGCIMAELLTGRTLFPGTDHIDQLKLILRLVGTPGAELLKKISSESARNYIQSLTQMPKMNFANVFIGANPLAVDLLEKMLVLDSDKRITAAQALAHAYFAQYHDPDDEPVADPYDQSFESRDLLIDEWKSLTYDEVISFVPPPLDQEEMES", "UniProt Q12851": "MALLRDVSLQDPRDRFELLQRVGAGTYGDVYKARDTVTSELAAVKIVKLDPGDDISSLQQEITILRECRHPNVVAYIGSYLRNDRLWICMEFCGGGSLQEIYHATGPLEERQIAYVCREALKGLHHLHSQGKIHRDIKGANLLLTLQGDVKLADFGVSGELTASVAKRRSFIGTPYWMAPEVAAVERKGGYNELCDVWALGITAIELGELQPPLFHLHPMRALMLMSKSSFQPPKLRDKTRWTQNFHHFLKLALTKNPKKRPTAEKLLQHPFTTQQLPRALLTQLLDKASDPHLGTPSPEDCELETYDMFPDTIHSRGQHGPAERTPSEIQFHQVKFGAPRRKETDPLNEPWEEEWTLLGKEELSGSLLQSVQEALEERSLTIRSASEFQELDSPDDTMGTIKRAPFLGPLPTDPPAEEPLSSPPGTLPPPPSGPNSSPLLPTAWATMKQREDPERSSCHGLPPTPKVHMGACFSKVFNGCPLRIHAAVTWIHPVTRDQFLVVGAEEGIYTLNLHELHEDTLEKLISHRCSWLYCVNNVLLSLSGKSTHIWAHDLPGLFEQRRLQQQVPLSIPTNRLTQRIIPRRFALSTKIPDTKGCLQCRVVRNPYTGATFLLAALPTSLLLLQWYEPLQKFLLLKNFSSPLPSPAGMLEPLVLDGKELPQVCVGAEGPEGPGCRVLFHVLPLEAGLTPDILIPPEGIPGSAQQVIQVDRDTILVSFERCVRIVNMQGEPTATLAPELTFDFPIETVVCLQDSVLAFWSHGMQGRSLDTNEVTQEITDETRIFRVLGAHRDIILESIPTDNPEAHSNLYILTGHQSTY", "UniProt P36941": "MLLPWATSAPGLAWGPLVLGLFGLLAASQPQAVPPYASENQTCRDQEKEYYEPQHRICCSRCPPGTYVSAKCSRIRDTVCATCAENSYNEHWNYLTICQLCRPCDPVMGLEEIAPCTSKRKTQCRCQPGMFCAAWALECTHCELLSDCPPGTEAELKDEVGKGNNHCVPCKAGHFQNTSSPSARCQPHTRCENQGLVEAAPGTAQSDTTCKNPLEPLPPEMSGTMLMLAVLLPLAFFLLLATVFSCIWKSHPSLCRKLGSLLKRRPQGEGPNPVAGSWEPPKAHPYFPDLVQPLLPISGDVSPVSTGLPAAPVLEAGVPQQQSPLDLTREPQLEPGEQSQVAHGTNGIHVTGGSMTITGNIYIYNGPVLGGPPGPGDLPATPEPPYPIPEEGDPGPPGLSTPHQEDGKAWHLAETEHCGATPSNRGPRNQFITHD", "UniProt Q9NQG1": "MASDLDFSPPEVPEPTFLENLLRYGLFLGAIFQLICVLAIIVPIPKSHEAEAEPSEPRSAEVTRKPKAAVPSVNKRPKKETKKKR", "UniProt Q14244": "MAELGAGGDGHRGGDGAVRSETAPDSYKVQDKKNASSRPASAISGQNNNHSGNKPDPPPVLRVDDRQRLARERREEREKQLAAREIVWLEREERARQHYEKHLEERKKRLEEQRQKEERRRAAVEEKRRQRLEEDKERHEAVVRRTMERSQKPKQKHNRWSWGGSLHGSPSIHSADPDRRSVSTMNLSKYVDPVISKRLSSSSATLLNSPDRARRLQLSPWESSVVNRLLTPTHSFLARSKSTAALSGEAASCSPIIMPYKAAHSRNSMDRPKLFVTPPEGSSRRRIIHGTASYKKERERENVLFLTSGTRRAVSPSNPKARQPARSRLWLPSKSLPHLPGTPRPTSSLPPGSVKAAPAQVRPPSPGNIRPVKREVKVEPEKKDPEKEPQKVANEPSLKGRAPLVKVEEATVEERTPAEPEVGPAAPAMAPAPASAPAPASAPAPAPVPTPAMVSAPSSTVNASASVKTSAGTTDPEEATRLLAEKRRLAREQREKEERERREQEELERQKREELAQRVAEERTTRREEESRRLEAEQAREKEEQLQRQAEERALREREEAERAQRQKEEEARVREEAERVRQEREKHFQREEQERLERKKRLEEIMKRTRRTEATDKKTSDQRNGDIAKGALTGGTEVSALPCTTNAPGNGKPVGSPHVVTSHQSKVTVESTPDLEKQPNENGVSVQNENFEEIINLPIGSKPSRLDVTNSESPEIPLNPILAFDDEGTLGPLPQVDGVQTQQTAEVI", "UniProt Q9Y4K4": "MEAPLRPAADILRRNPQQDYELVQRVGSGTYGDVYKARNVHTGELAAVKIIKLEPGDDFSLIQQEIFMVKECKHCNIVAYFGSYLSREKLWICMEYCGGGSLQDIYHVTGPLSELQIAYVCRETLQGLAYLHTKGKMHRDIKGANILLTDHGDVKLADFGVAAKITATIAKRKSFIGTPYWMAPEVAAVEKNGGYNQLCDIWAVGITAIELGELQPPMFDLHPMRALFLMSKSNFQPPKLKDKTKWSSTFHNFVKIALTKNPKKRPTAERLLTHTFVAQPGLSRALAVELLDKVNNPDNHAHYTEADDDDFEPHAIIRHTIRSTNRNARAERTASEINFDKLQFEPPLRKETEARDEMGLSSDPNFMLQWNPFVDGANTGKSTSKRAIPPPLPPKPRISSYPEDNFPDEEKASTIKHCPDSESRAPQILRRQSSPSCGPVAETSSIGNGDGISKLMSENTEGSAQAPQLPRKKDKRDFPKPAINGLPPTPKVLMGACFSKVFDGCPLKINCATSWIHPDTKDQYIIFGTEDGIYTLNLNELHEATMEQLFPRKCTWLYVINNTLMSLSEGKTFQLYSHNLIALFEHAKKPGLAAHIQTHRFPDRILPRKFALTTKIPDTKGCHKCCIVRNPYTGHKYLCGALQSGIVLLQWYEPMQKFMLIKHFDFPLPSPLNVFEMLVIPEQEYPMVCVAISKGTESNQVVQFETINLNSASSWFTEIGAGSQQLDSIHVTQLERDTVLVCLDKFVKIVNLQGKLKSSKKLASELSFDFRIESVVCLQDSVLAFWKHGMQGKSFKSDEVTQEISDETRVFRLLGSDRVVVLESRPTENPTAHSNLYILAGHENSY", "UniProt Q16553": "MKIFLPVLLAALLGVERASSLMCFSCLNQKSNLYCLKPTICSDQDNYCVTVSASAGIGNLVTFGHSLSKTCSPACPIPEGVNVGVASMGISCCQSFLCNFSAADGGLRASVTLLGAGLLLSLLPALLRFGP", "UniProt Q5SRI9": "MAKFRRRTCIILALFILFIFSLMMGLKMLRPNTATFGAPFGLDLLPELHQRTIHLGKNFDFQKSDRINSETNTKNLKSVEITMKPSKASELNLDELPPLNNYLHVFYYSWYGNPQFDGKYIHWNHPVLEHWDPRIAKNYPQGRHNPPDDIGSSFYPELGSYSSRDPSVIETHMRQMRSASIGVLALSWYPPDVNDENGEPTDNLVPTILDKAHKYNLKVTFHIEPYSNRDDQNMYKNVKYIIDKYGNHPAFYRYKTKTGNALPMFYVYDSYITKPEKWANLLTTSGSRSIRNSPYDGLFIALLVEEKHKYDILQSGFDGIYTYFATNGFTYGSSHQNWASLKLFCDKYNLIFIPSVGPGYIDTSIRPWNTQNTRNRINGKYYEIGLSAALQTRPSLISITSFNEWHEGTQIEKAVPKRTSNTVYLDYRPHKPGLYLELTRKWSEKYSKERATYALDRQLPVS", "UniProt P27448": "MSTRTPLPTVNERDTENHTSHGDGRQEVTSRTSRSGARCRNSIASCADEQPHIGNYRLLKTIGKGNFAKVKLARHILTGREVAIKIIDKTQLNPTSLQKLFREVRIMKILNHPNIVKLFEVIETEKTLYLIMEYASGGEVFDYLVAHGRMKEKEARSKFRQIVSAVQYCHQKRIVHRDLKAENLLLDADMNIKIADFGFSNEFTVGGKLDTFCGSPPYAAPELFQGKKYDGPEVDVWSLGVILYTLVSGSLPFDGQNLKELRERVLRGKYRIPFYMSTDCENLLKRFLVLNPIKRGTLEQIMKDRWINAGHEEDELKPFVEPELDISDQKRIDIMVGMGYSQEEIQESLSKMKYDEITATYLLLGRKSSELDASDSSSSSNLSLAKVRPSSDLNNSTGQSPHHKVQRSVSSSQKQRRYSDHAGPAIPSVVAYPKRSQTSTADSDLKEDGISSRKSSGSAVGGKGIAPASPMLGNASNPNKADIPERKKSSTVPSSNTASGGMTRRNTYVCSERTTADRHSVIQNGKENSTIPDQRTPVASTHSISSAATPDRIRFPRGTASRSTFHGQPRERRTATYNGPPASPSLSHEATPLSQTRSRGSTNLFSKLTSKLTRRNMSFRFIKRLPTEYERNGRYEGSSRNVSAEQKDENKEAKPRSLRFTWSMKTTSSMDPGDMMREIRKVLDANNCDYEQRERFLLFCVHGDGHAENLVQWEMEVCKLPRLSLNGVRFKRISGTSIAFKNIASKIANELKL"},
  "source": "the supplement of paper PMC10849652",
  "test_in_all_cases": "log2 fold change, soluble protein after heating vs DMSO (PISA); higher = thermal stabilisation; K562 lysate, 10 uM; active = over 0.2 and 3.5 SD of the protein, either way, in both replicates (recomputed)",
  "key": {"ibrutinib": {"compound": "C=CC(=O)N1CCC[C@@H](n2nc(-c3ccc(Oc4ccccc4)cc3)c3c(N)ncnc32)C1 [ibrutinib]", "summary_of_the_method": "(§1)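 Thermal stability, expressed as log-two fold change relative to solvent controls, is given from duplicates. Crude K562 extract in PBS pH 7.4 with 1 mM MgCl2, at 1 mg/mL protein, was treated with 10 μM compound for 30 min and heated in aliquots for 3 min across 48°C-58°C. After pooling, adjustment to 0.5% NP-40 at 4°C and centrifugation at 21,000xg for 90 min, supernatant protein was measured by TMTpro 16plex LC-MS/MS with channel sums equalised.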"}, "[1]": {"compound": "CC(=O)c1cnc2ccc(-c3cc(Cl)c(O)c(Cl)c3)nc2c1N[C@H]1CC[C@H](CN(C)C)CC1", "summary_of_the_method": "as §1"}, "ralimetinib": {"compound": "CC(C)(C)Cn1c(N)nc2ccc(-c3[nH]c(C(C)(C)C)nc3-c3ccc(F)cc3)nc21 [ralimetinib]", "summary_of_the_method": "as §1"}, "[2]": {"compound": "CC(C)(O)CC(=O)NCCn1ccc2ncnc(Nc3ccc(Oc4cccc(C(F)(F)F)c4)c(Cl)c3)c21", "summary_of_the_method": "as §1"}, "[3]": {"compound": "CC(C)C1=C2N=C(C=C(N2N=C1)NCC3=CC=CC=C3)NCCCCCCN", "summary_of_the_method": "as §1"}, "[4]": {"compound": "CC1=C(C(CC(=O)N1)C2=CC=C(C=C2)C(F)(F)F)C(=O)NC3=C(C=C4C(=C3)C=NN4)F", "summary_of_the_method": "as §1"}, "[5]": {"compound": "CC1=C(C2=C(C=C1)C(=O)C3=CC=CC=C3N2CCCN)C", "summary_of_the_method": "as §1"}, "[6]": {"compound": "CC1=C(C=C(C=C1)NC(=O)C2=CC(=CC=C2)C(C)(C)C#N)NC3=CC4=C(C=C3)N=CN(C4=O)C", "summary_of_the_method": "as §1"}, "[7]": {"compound": "CC1=C(C=C(C=C1)NC(=O)C2=CC(=CC=C2)N(C)C)NC(=O)C3=CC=C(C=C3)O", "summary_of_the_method": "as §1"}, "[8]": {"compound": "CC1=CC=C(C=C1)SC2=C3C=C(SC3=CN=C2)C(=O)N", "summary_of_the_method": "as §1"}},
  "note": "This is one part of the list.",
  "data": [
    {"target": "MAPK14 isoform 2 (UniProt Q16539)", "values": [
      {"measurement": "log2 fold change", "setting": "ibrutinib", "value": "inactive: 0.03"},
      {"measurement": "log2 fold change", "setting": "[1]", "value": "inactive: 0.249"},
      {"measurement": "log2 fold change", "setting": "ralimetinib", "value": "active: 0.97"},
      {"measurement": "log2 fold change", "setting": "[2]", "value": "inactive: -0.047"},
      {"measurement": "log2 fold change", "setting": "[3]", "value": "inactive: -0.003"},
      {"measurement": "log2 fold change", "setting": "[4]", "value": "inactive: 0.02"},
      {"measurement": "log2 fold change", "setting": "[5]", "value": "inactive: -0.027"},
      {"measurement": "log2 fold change", "setting": "[6]", "value": "active: 0.973"},
      {"measurement": "log2 fold change", "setting": "[7]", "value": "inactive: 0.419"},
      {"measurement": "log2 fold change", "setting": "[8]", "value": "inactive: 0.011"}
    ]},
    {"target": "MAP4K2 (UniProt Q12851)", "values": [
      {"measurement": "log2 fold change", "setting": "ibrutinib", "value": "inactive: -0.036"},
      {"measurement": "log2 fold change", "setting": "[1]", "value": "inactive: 0.337"},
      {"measurement": "log2 fold change", "setting": "ralimetinib", "value": "inactive: -0.029"},
      {"measurement": "log2 fold change", "setting": "[2]", "value": "inactive: 0.108"},
      {"measurement": "log2 fold change", "setting": "[3]", "value": "inactive: 0.04"},
      {"measurement": "log2 fold change", "setting": "[5]", "value": "inactive: -0.144"},
      {"measurement": "log2 fold change", "setting": "[6]", "value": "inactive: 0.058"},
      {"measurement": "log2 fold change", "setting": "[7]", "value": "inactive: 0.209"},
      {"measurement": "log2 fold change", "setting": "[8]", "value": "inactive: -0.207"}
    ]},
    {"target": "LTBR (UniProt P36941)", "values": [
      {"measurement": "log2 fold change", "setting": "ibrutinib", "value": "inactive: -0.185"},
      {"measurement": "log2 fold change", "setting": "[1]", "value": "inactive: -0.042"},
      {"measurement": "log2 fold change", "setting": "[3]", "value": "inactive: -0.103"},
      {"measurement": "log2 fold change", "setting": "[6]", "value": "inactive: 0.124"},
      {"measurement": "log2 fold change", "setting": "[8]", "value": "inactive: -0.146"}
    ]},
    {"target": "MANBAL (UniProt Q9NQG1)", "values": [
      {"measurement": "log2 fold change", "setting": "ibrutinib", "value": "inactive: 0.077"},
      {"measurement": "log2 fold change", "setting": "[1]", "value": "inactive: 0.016"},
      {"measurement": "log2 fold change", "setting": "ralimetinib", "value": "inactive: -0.002"},
      {"measurement": "log2 fold change", "setting": "[2]", "value": "inactive: -0.001"},
      {"measurement": "log2 fold change", "setting": "[3]", "value": "inactive: -0.082"},
      {"measurement": "log2 fold change", "setting": "[7]", "value": "inactive: 0.028"},
      {"measurement": "log2 fold change", "setting": "[8]", "value": "inactive: -0.045"}
    ]},
    {"target": "MAP7 (UniProt Q14244)", "values": [
      {"measurement": "log2 fold change", "setting": "ibrutinib", "value": "inactive: 0.059"},
      {"measurement": "log2 fold change", "setting": "[1]", "value": "inactive: 0.026"},
      {"measurement": "log2 fold change", "setting": "[3]", "value": "inactive: -0.01"},
      {"measurement": "log2 fold change", "setting": "[4]", "value": "inactive: 0.028"},
      {"measurement": "log2 fold change", "setting": "[5]", "value": "inactive: -0.075"},
      {"measurement": "log2 fold change", "setting": "[6]", "value": "inactive: 0.07"},
      {"measurement": "log2 fold change", "setting": "[8]", "value": "inactive: 0.017"}
    ]},
    {"target": "MAP4K5 (UniProt Q9Y4K4)", "values": [
      {"measurement": "log2 fold change", "setting": "ibrutinib", "value": "inactive: 0.029"},
      {"measurement": "log2 fold change", "setting": "[1]", "value": "inactive: 0.108"},
      {"measurement": "log2 fold change", "setting": "ralimetinib", "value": "inactive: 0.039"},
      {"measurement": "log2 fold change", "setting": "[2]", "value": "inactive: 0.002"},
      {"measurement": "log2 fold change", "setting": "[3]", "value": "inactive: 0.098"},
      {"measurement": "log2 fold change", "setting": "[4]", "value": "inactive: -0.003"},
      {"measurement": "log2 fold change", "setting": "[5]", "value": "inactive: 0.009"},
      {"measurement": "log2 fold change", "setting": "[6]", "value": "inactive: 0"},
      {"measurement": "log2 fold change", "setting": "[7]", "value": "inactive: 0.021"},
      {"measurement": "log2 fold change", "setting": "[8]", "value": "inactive: 0.025"}
    ]},
    {"target": "LY6E (UniProt Q16553)", "values": [
      {"measurement": "log2 fold change", "setting": "ibrutinib", "value": "inactive: -0.032"},
      {"measurement": "log2 fold change", "setting": "[1]", "value": "inactive: 0.028"},
      {"measurement": "log2 fold change", "setting": "[4]", "value": "inactive: -0.027"},
      {"measurement": "log2 fold change", "setting": "[8]", "value": "inactive: -0.042"}
    ]},
    {"target": "MANEA (UniProt Q5SRI9)", "values": [
      {"measurement": "log2 fold change", "setting": "ibrutinib", "value": "inactive: 0"},
      {"measurement": "log2 fold change", "setting": "[1]", "value": "inactive: 0.038"},
      {"measurement": "log2 fold change", "setting": "ralimetinib", "value": "inactive: 0.024"},
      {"measurement": "log2 fold change", "setting": "[2]", "value": "inactive: -0.1"},
      {"measurement": "log2 fold change", "setting": "[3]", "value": "inactive: 0.041"},
      {"measurement": "log2 fold change", "setting": "[5]", "value": "inactive: -0.009"},
      {"measurement": "log2 fold change", "setting": "[6]", "value": "inactive: 0.037"},
      {"measurement": "log2 fold change", "setting": "[7]", "value": "inactive: 0.114"},
      {"measurement": "log2 fold change", "setting": "[8]", "value": "inactive: 0.068"}
    ]},
    {"target": "MARK3 (UniProt P27448)", "values": [
      {"measurement": "log2 fold change", "setting": "ibrutinib", "value": "inactive: 0.03"},
      {"measurement": "log2 fold change", "setting": "[1]", "value": "inactive: -0.081"},
      {"measurement": "log2 fold change", "setting": "ralimetinib", "value": "inactive: 0.028"},
      {"measurement": "log2 fold change", "setting": "[2]", "value": "inactive: -0.016"},
      {"measurement": "log2 fold change", "setting": "[3]", "value": "inactive: 0.041"},
      {"measurement": "log2 fold change", "setting": "[4]", "value": "inactive: 0.005"},
      {"measurement": "log2 fold change", "setting": "[5]", "value": "inactive: -0.009"},
      {"measurement": "log2 fold change", "setting": "[6]", "value": "inactive: 0.075"},
      {"measurement": "log2 fold change", "setting": "[7]", "value": "inactive: 0.016"},
      {"measurement": "log2 fold change", "setting": "[8]", "value": "inactive: 0"}
    ]}
  ]
}
